# Measured values taken from US20030040510A1, “Selective estrogen receptor modulators in combination with estrogens” (Endorecherche, Inc., priority 2000, published 2003).
# For at least one compound, name, drawing or mass did not settle the structure.
# Tested on: ovariectomized rats
# Assay: 5-diol alone or with Flutamide and/or EM-800 for 12 months in ovariectomized rats (bone mass, serum markers)
smiles,measurement,setting,value
"CC(C)C(=O)Nc1ccc([N+](=O)[O-])c(C(F)(F)F)c1 [FLU, Flutamide]","Effect on 5-diol action on bone volume, trabecular number and trabecular separation (histomorphometry)","added to 5-diol, proximal tibia",abolished
same,Effect on the stimulatory effect of 5-diol on femoral BMD,simultaneous FLU 10 mg s.c. daily,completely prevented
